Measurements reported in PubChem BioAssay AID602196 (INSERM, 2012)
This is one part, drawn at random, of about 23,000 deposited reagents. In the full data, 455 (2%) are marked active. 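Active includes both protection and sensitisation; some change values fall well beyond the stated -50 to +50 range.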 No sequences are given here. Not given: the amount of reagent.

Purpose: 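Modifiers of cisplatin sensitivity in A549 cells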
System: human A549 lung cancer cells
Reagents: siRNA pair against human genes
Time to read-out: 48 h transfection before cisplatin; time from cisplatin to read-out not stated
Challenge: cisplatin at a dose killing half of control-siRNA cells; exact dose and duration not given
Measurement: 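Shift in cisplatin death relative to control siRNA, from -50 (all cells die) to +50 (no cells die); siRNAs harmful on their own scored 0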
Scale: two-siRNA summed score (-2 to +2): higher = both siRNAs protect from cisplatin killing; -2 means both sensitise; mean protection from cisplatin (shift in death) and protection from cisplatin (shift in death), siRNA C and protection from cisplatin (shift in death), siRNA D: higher = protection from cisplatin killing
Rule for the call: 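siRNAs harmful alone (LDH or WST-1) get 0; others get +1 for less and -1 for more cisplatin killing; genes are active when the two siRNAs give the same sign, summing to ±2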
Calls: active = both siRNAs shift cisplatin killing the same way; inactive = no consistent shift, or siRNA harmful alone

two-siRNA summed score (-2 to +2)	mean protection from cisplatin (shift in death) (%)	protection from cisplatin (shift in death), siRNA C (%)	protection from cisplatin (shift in death), siRNA D (%)	Call	Gene
0	20.9	21.8	20	inactive	RPL26
0	-4.2	-8.5	0.2	inactive	NRP1
0	9.5	8.5	10.5	inactive	TMC6
1	5.8	-2.5	14.1	inactive	LOC389562
0	9.4	15.4	3.5	inactive	LOC440595
-1	-10.7	-28.3	6.8	inactive	HHLA1
1	12.4	4.1	20.6	inactive	DNAH8
0	12.4	18.4	6.5	inactive	LOC440394
-1	-14.3	-14.6	-14	inactive	OTUD5
0	4	10.1	-2	inactive	SKI
0	-4.9	-3.5	-6.4	inactive	OR4A16
1	11.7	8.9	14.6	inactive	LOC440680
2	20.2	18.2	22.2	active	CFDP1
0	15.1	21.5	8.8	inactive	TSPYL1
0	-9.1	3.6	-21.8	inactive	RAB26
1	4.6	12.9	-3.8	inactive	MGAT4A
0	5.8	4.8	6.7	inactive	FLJ25404
1	6.3	19.9	-7.2	inactive	RBMS3
0	-1.1	-7.3	5.1	inactive	CHURC1
-1	8.6	-9.9	27.1	inactive	LOC440828
0	3.2	7.5	-1.1	inactive	PABIR2
0	8.7	12	5.4	inactive	LOC439963
0	0.3	0.8	-0.2	inactive	EPS8
0	4.1	-4.8	13	inactive	LOC388305
0	-7.5	-12.9	-2.2	inactive	GRIN1
1	4.9	-2.7	12.5	inactive	LANCL3
0	26.2	8.3	44	inactive	LOC401896
0	0.2	0.6	-0.3	inactive	LOC439993
0	2.9	-1.1	6.9	inactive	RPS6KA4
0	10.9	6.3	15.6	inactive	DEPDC5
0	3.6	13.2	-6	inactive	LOC401529
0	8.6	4.9	12.3	inactive	FAIM
1	8.9	19.1	-1.4	inactive	ALPL
0	1.2	-7.9	10.3	inactive	CR1
0	-3.8	-7.7	0.2	inactive	PTBP1
-1	-14.2	-29.5	1.1	inactive	PMPCB
-1	-25.1	-26.8	-23.4	inactive	CCKBR
-1	-6.6	3.1	-16.3	inactive	NUDT1
0	13.3	10.7	16	inactive	TMEM121B
1	16.3	5.1	27.4	inactive	RNGTT
0	27.1	8.7	45.5	inactive	LOC401817
0	-0.9	-7.4	5.6	inactive	KL
1	9	23.2	-5.1	inactive	AGXT2
1	12.1	20.8	3.4	inactive	RTN1
1	5.6	-6.1	17.2	inactive	ATP12A
0	12.4	14.1	10.7	inactive	C5orf46
0	-0.6	-3.5	2.3	inactive	LOC391824
0	0.8	2.4	-0.8	inactive	ADSS2
0	21.6	25.6	17.7	inactive	LOC442591
0	5.4	11.5	-0.7	inactive	CDKN2A
0	2	0.6	3.4	inactive	CX3CL1
0	6	12.1	-0.2	inactive	PKD2L1
0	17.8	0.7	35	inactive	ARMH3
0	1.4	6.5	-3.7	inactive	AP1M1
0	16.7	30.4	2.9	inactive	LOC441158
0	8.4	16.9	-0.2	inactive	KISS1
1	15.9	23.4	8.5	inactive	CENPBD1P

Taken from above.
Under “protection from cisplatin (shift in death), siRNA D (%)”, SKI is entered as -2
Entry for ATP12A in “protection from cisplatin (shift in death), siRNA D (%)”: 17.2
Under “two-siRNA summed score (-2 to +2)”, RTN1 has 1
C5orf46, Call: inactive
